The other results are listed elsewhere or left out.
What was measured:
Test in all cases: glycan array binding signal (z-score within array); higher = stronger binding
Conditions in all cases: glycan notation: IUPAC condensed, linker removed
[1] = target: Fuc(a1-2)[GalNAc(a1-3)]Gal(b1-4)Glc
In short: (§1)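 The binding signal is a Z-score computed within each array. Data were drawn from 3228 arrays in the Consortium for Functional Glycomics database, restricted to those with a known protein sequence. Scores were averaged over arrays of the same protein sequence at different concentrations or buffers, and over linkers, and negative values can be taken as non-binding.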

[2] = target: Fuc(a1-2)[GalNAc(a1-3)]Gal(b1-4)GlcNAc
In short: as §1

[3] = target: Fuc(a1-2)[GalNAc(a1-3)]Gal(b1-4)[Fuc(a1-3)]GlcNAc
In short: as §1

[4] = target: Fuc(a1-2)[GalNAc(a1-4)]Gal(b1-4)GlcNAc
In short: as §1

[5] = target: Fuc(a1-2)[GalNAc(b1-3)]Gal
In short: as §1

[6] = target: Fuc(a1-3)GlcNAc
In short: as §1

[7] = target: Fuc(a1-3)[Gal(b1-4)]Glc6S
In short: as §1

[8] = target: Fuc(a1-3)[Gal(b1-4)]GlcNAc
In short: as §1

[9] = target: Fuc(a1-3)[Gal(b1-4)]GlcNAc(b1-3)Gal(b1-3)[Fuc(a1-4)]GlcNAc
In short: as §1

[10] = target: Fuc(a1-3)[Gal(b1-4)]GlcNAc(b1-4)Gal(b1-4)[Fuc(a1-3)]GlcNAc
In short: as §1

[11] = target: Fuc(a1-3)[Gal(b1-4)]GlcNAc(b1-4)Gal(b1-4)[Fuc(a1-3)]GlcNAc(b1-4)Gal(b1-4)[Fuc(a1-3)]GlcNAc
In short: as §1

[12] = target: Fuc(a1-3)[Gal(b1-4)]GlcNAc6S
In short: as §1

[13] = target: Fuc(a1-3)[Gal3S(b1-4)]Glc6S
In short: as §1

[14] = target: Fuc(a1-3)[Gal3S(b1-4)]GlcNAc
In short: as §1

[15] = target: Fuc(a1-3)[Gal3S(b1-4)]GlcNAc6S
In short: as §1

[16] = target: Fuc(a1-3)[GalNAc(b1-4)]GlcNAc
In short: as §1

[17] = target: Fuc(a1-4)GlcNAc
In short: as §1

[18] = target: Fuc(b1-3)GlcNAc
In short: as §1

[19] = target: Gal(a1-2)Gal
In short: as §1

[20] = target: Gal(a1-3)Gal
In short: as §1

[21] = target: Gal(a1-3)Gal(b1-3)GlcNAc
In short: as §1

[22] = target: Gal(a1-3)Gal(b1-4)Glc
In short: as §1

[23] = target: Gal(a1-3)Gal(b1-4)GlcNAc
In short: as §1

[24] = target: Gal(a1-3)Gal(b1-4)[Fuc(a1-3)]GlcNAc
In short: as §1

[25] = target: Gal(a1-3)GalNAc
In short: as §1

[26] = target: Gal(a1-3)[Gal(a1-4)]Gal(b1-4)GlcNAc
In short: as §1

[27] = target: Gal(a1-4)Gal(b1-4)Glc
In short: as §1

[28] = target: Gal(a1-4)Gal(b1-4)GlcNAc
In short: as §1

[29] = target: Gal(a1-4)GlcNAc
In short: as §1

[30] = target: Gal(a1-6)Glc
In short: as §1

[31] = target: Gal(b1-2)Gal
In short: as §1

[32] = target: Gal(b1-3)Gal
In short: as §1

[33] = target: Gal(b1-3)Gal(b1-4)GlcNAc
In short: as §1

[34] = target: Gal(b1-3)GalNAc
In short: as §1

[35] = target: Gal(b1-3)GalNAc(b1-3)Gal(a1-4)Gal(b1-4)Glc
In short: as §1

[36] = target: Gal(b1-3)GalNAc(b1-4)Gal(b1-4)Glc
In short: as §1

[37] = target: Gal(b1-3)GalNAc(b1-4)[Neu5Ac(a2-3)]Gal(b1-4)Glc
In short: as §1

[38] = target: Gal(b1-3)GlcNAc
In short: as §1

[39] = target: Gal(b1-3)GlcNAc(b1-3)Gal(b1-3)GlcNAc
In short: as §1

[40] = target: Gal(b1-3)GlcNAc(b1-3)Gal(b1-4)Glc
In short: as §1

[41] = target: Gal(b1-3)GlcNAc(b1-3)Gal(b1-4)GlcNAc
In short: as §1

[42] = target: Gal(b1-3)[Fuc(a1-4)]GlcNAc
In short: as §1

[43] = target: Gal(b1-3)[Fuc(a1-4)]GlcNAc(b1-3)Gal(b1-3)[Fuc(a1-4)]GlcNAc
In short: as §1

[44] = target: Gal(b1-3)[Fuc(a1-4)]GlcNAc(b1-3)Gal(b1-4)GlcNAc
In short: as §1

[45] = target: Gal(b1-3)[Fuc(a1-4)]GlcNAc(b1-3)Gal(b1-4)[Fuc(a1-3)]GlcNAc
In short: as §1

B1: TbCVNHOa (Tuber borchii), Q5MK11 (protein)
chain: MSYADSSRNAVLTNGGRTLRAECRNADGNWVTSELDLDTCIGNPNGFLGWGMQNFSHSSEDIKLEEGGRKLTCRPKTVDGGFRERQGIDLNRIQNVNGRLVFQ
B1 was tested, and the “glycan array binding signal (z-score)” value [1] was -0.367, the “glycan array binding signal (z-score)” value [2] was -0.035 and the “glycan array binding signal (z-score)” value [3] was 0.211. For the same binder, the “glycan array binding signal (z-score)” value [4] was -0.056, the “glycan array binding signal (z-score)” value [5] was -0.153 and the “glycan array binding signal (z-score)” value [6] was 0.408. The “glycan array binding signal (z-score)” value [7] was -0.197, the “glycan array binding signal (z-score)” value [8] was -0.024 and the “glycan array binding signal (z-score)” value [9] was -0.039. The “glycan array binding signal (z-score)” value [10] was 0.381, the “glycan array binding signal (z-score)” value [11] was 0.03 and the “glycan array binding signal (z-score)” value [12] was 0.259. For the same binder, the “glycan array binding signal (z-score)” value [13] was 0.016, the “glycan array binding signal (z-score)” value [14] was -0.153 and the “glycan array binding signal (z-score)” value [15] was -0.101. The “glycan array binding signal (z-score)” value [16] was 0.07, the “glycan array binding signal (z-score)” value [17] was -0.164 and the “glycan array binding signal (z-score)” value [18] was 0.478. For the same binder, the “glycan array binding signal (z-score)” value [19] was -0.134, the “glycan array binding signal (z-score)” value [20] was 0.016 and the “glycan array binding signal (z-score)” value [21] was -0.161. The “glycan array binding signal (z-score)” value [22] was 1.45, the “glycan array binding signal (z-score)” value [23] was -0.428 and the “glycan array binding signal (z-score)” value [24] was -0.54. The “glycan array binding signal (z-score)” value [25] was 0.742, the “glycan array binding signal (z-score)” value [26] was 0.075 and the “glycan array binding signal (z-score)” value [27] was -0.365. For the same binder, the “glycan array binding signal (z-score)” value [28] was -0.189, the “glycan array binding signal (z-score)” value [29] was 0.211 and the “glycan array binding signal (z-score)” value [30] was 0.212. For the same binder, the “glycan array binding signal (z-score)” value [31] was 0.626, the “glycan array binding signal (z-score)” value [32] was -0.311 and the “glycan array binding signal (z-score)” value [33] was -0.935. For the same binder, the “glycan array binding signal (z-score)” value [34] was -0.24, the “glycan array binding signal (z-score)” value [35] was -0.147 and the “glycan array binding signal (z-score)” value [36] was 0.203. For the same binder, the “glycan array binding signal (z-score)” value [37] was -0.054, the “glycan array binding signal (z-score)” value [38] was -0.291 and the “glycan array binding signal (z-score)” value [39] was -0.382. The “glycan array binding signal (z-score)” value [40] was 2.76, the “glycan array binding signal (z-score)” value [41] was -0.551 and the “glycan array binding signal (z-score)” value [42] was -0.086. The “glycan array binding signal (z-score)” value [43] was -0.072, the “glycan array binding signal (z-score)” value [44] was 0.085 and the “glycan array binding signal (z-score)” value [45] was -0.116.

— the supplement of paper PMC8728848
